Measured values from the supplement of paper PMC9254222.
Whole data set: some 1,100 compounds, median “Wnt reporter firefly/Renilla luciferase ratio relative to plate median” near 1.1, cut for the highest 2% near 1.6. The list shows a part of the results, in another mix than the full data.

Test system: HEK293T (UBE3A T485A transfected, BAR Wnt reporter)
Assay: Wnt reporter firefly/Renilla luciferase ratio relative to plate median (fold (linear ratio)); higher = more Wnt/beta-catenin reporter activation
Settings: 24 h
In short: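 Wnt activity (firefly/Renilla ratio) and cell health (raw Renilla) were read with Dual-Glo luciferase and median-centred plate by plate. HEK293T cells, at 4500 cells/well in white 384-well plates with DMEM plus 10% FBS at 37°C and 5% CO2, carried a transfected BAR firefly luciferase Wnt reporter, TK-Renilla and an expression plasmid. The chemicals were applied by robot at 0.01–100 uM for 24 h, beginning four hours after transfection, and results were averaged across four biological replicates.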

Row | Compound | Wnt reporter firefly/Renilla luciferase ratio (concentration: 0.01 uM) | Wnt reporter firefly/Renilla luciferase ratio (concentration: 0.1 uM) | Wnt reporter firefly/Renilla luciferase ratio (concentration: 1 uM) | Wnt reporter firefly/Renilla luciferase ratio (concentration: 10 uM) | Wnt reporter firefly/Renilla luciferase ratio (concentration: 100 uM)
1 | CCC(C)C1OC2(C=CC1C)CC1CC(CC=C(C)C(OC3CC(OC)C(OC4CC(OC)C([NH2+]C)C(C)O4)C(C)O3)C(C)C=CC=C3COC4C(O)C(C)=CC(C(=O)O1)C34O)O2.O=C([O-])c1ccccc1 (stereo not drawn) [Emamectin benzoate] | 1.29 | 1.09 | 1.01 | 0.918 | 
2 | CC(C)OC(=O)Nc1cccc(Cl)c1 [Chlorpropham] | 1.45 | 1.78 | 1.23 | 1.47 | 0.823
3 | Cc1ccc([N+](=O)[O-])cc1C [1,2-Dimethyl-4-nitrobenzene] |  | 0.844 | 1.17 | 1.19 | 1.42
4 | Cc1ccn2nc(S(=O)(=O)Nc3c(F)cccc3F)nc2n1 [Flumetsulam] | 0.851 | 0.967 | 0.904 | 1.03 | 1.27
5 | CC(C)CCCCCCCOC(=O)c1ccccc1C(=O)OCCCCCCCC(C)C |  |  |  |  | 1.9
6 | C[C@@H]1C[C@@H]([C@H](O)CC2CC(=O)NC(=O)C2)C(=O)[C@@H](C)C1 [Cycloheximide] |  | 1.01 |  |  | 
7 | CCN(CC)c1ccccc1 [N,N-Diethylaniline] |  | 1.46 | 1.41 | 1.32 | 0.952
8 | CC(Cc1ccc(OCC(=O)O)cc1)NCC(O)c1csc(C(F)(F)F)n1 (stereo not drawn) |  | 0.978 | 1.07 | 1.02 | 1.31
9 | CC(C)(C)OOC(C)(C)C [Di-tert-butyl peroxide] |  | 1.06 | 1.14 | 0.944 | 1.39
10 | CCOP(=S)(OCC)SCSP(=S)(OCC)OCC [Ethion] |  | 1.15 | 1.01 | 1.26 | 1.16
11 | O=C(Nc1ccccc1-c1ccc(Cl)cc1)c1cccnc1Cl [Boscalid] | 1.57 | 1.25 | 1.1 | 0.956 | 0.876
12 | Cn1sc(Cl)cc1=O [5-Chloro-2-methyl-3(2H)-isothiazolone] |  | 1.28 | 1.07 | 1.07 | 0.458
13 | Oc1ccc2ccc3cccc4ccc1c2c34 [1-Hydroxypyrene] |  | 0.857 | 0.96 | 1.01 | 1.14
14 | C[n+]1ccc(-c2cc[n+](C)cc2)cc1 [Paraquat] |  |  |  |  | 1.77
15 | COc1ccc(O)c(C(C)(C)C)c1 [2-tert-Butyl-4-methoxyphenol] |  | 0.991 | 1.03 | 0.988 | 1.21
16 | O=C(CCl)c1ccccc1 [2-Chloroacetophenone] |  | 1.18 | 0.919 | 1.41 | 0.739
17 | Nc1ccc([N+](=O)[O-])cc1 [4-Nitroaniline] |  | 1.19 | 0.817 | 0.602 | 0.574
18 | COc1nn(CSP(=S)(OC)OC)c(=O)s1 [Methidathion] | 1.41 | 1.74 | 1.33 | 1.56 | 0.818
19 | CCCCCCCCCC[N+](C)(C)CCCCCCCCCC.[Cl-] [Didecyldimethylammonium chloride] |  | 0.908 | 1.09 | 0.905 | 0.0409
20 | COc1ccc(C(c2ccc(OC)cc2)C(Cl)(Cl)Cl)cc1 [Methoxychlor] | 0.858 | 1.13 | 1.12 | 1.25 | 1.04
21 | CCNC(=O)NC(=O)/C(C#N)=N/OC [Cymoxanil] | 1.42 | 1.34 | 1.15 | 1.29 | 1.1
22 | CCCCC(CC)COC(=O)c1ccc(C(=O)OCC(CC)CCCC)c(C(=O)OCC(CC)CCCC)c1 (stereo not drawn) [Tris(2-ethylhexyl) trimellitate] |  | 1.06 | 1.04 | 1.15 | 1.6

Row | Compound | Wnt reporter firefly/Renilla luciferase ratio (concentration: 0.01 uM) | Wnt reporter firefly/Renilla luciferase ratio (concentration: 0.1 uM) | Wnt reporter firefly/Renilla luciferase ratio (concentration: 1 uM) | Wnt reporter firefly/Renilla luciferase ratio (concentration: 10 uM) | Wnt reporter firefly/Renilla luciferase ratio (concentration: 100 uM)
23 | CC1(C)CCC(=Cc2ccc(Cl)cc2)C1(O)Cn1cncn1 (stereo not drawn) [Triticonazole] | 1.43 | 1.06 | 1.11 | 1.01 | 0.311
24 | Nc1nc(N)nc(NC2CC2)n1 [Cyromazine] | 1.01 | 1.18 | 0.955 | 1.02 | 1.22
25 | COP(N)(=O)SC (stereo not drawn) [Methamidophos] | 1.56 | 1.43 | 1.1 | 1.31 | 1.41
26 | CCC(C)c1cc([N+](=O)[O-])cc([N+](=O)[O-])c1O (stereo not drawn) [Dinoseb] |  | 0.797 | 0.806 | 0.929 | 
27 | COCCOCCO [Diethylene glycol monomethyl ether] |  | 1.19 | 1.21 | 1.31 | 1.43
28 | CN(C)CCO [Dimethylaminoethanol] |  | 1.18 | 1.02 | 0.827 | 1.21
29 | CSc1nnc(C(C)(C)C)c(=O)n1N [Metribuzin] | 1.04 | 0.957 | 1.06 | 0.988 | 1.17
30 | CC1(C)C(C=C(Cl)Cl)C1C(=O)OCc1cccc(Oc2ccccc2)c1 (stereo not drawn) [Permethrin] | 0.82 | 0.873 | 1.11 | 1.19 | 0.865
31 | C=CC1(C)OC(=O)N(c2cc(Cl)cc(Cl)c2)C1=O (stereo not drawn) [Vinclozolin] | 1.39 | 1.47 | 0.951 | 0.95 | 1.02
32 | O=c1ccc(=O)[nH][nH]1 [Maleic hydrazide] | 0.865 | 0.792 | 0.978 | 0.822 | 1.25
33 | CNC(=O)ON=C(SC)C(=O)N(C)C [Oxamyl] | 1.55 | 1.22 | 1.11 | 1.43 | 0.291
34 | ClC1=C(Cl)C2(Cl)C3C(Cl)C=CC3C1(Cl)C2(Cl)Cl (stereo not drawn) [Heptachlor] |  | 0.972 | 1.07 | 1.17 | 1.24
35 | Cc1ccc(N)cc1N [2,4-Diaminotoluene] |  | 1.03 | 1.07 | 0.94 | 0.914
36 | O=C(O)C1(c2ccc3c(c2)OC[C@H](Cc2ccc(-c4ccccc4)cc2)[C@H]3O)CCCC1 |  | 1.02 | 1.24 | 0.898 | 0.378
37 | N#C/N=C1\SCCN1Cc1ccc(Cl)nc1 [Thiacloprid] | 1.13 | 1.15 | 0.937 | 1.04 | 0.822
38 | CN(C)C(=S)[S-].[Na+] [Sodium dimethyldithiocarbamate] |  | 1.22 | 0.816 | 0.751 | 0.926
39 | C#CC(C)(C)NC(=O)c1cc(Cl)cc(Cl)c1 [Propyzamide] | 0.933 | 1.05 | 1.09 | 1.16 | 1.19
40 | COP(=S)(OC)Oc1ccc([N+](=O)[O-])c(C)c1 [Fenitrothion] | 1.53 | 2.01 | 1.26 | 1.43 | 0.976
41 | CN(C)NC(=O)CCC(=O)O [Daminozide] | 0.982 | 1.06 | 0.936 | 1.11 | 1.1
42 | O=P(OCCCl)(OCCCl)OCCCl [Tris(2-chloroethyl) phosphate] |  | 1.03 | 0.971 | 1.12 | 1.19
43 | NS(=O)(=O)C(F)(F)C(F)(F)C(F)(F)C(F)(F)C(F)(F)C(F)(F)C(F)(F)C(F)(F)F |  | 0.978 | 1.01 | 1.33 | 0.586
44 | CCSC(=O)N(CC)C1CCCCC1 [Cycloate] | 1.03 | 0.947 | 1.06 | 1.04 | 1.25

One compound at a time, from the list above.
COP(=S)(OC)Oc1ccc([N+](=O)[O-])c(C)c1 [Fenitrothion] as listed: Wnt reporter firefly/Renilla luciferase ratio (concentration: 0.01 uM): 1.53; Wnt reporter firefly/Renilla luciferase ratio (concentration: 0.1 uM): 2.01; Wnt reporter firefly/Renilla luciferase ratio (concentration: 1 uM): 1.26; Wnt reporter firefly/Renilla luciferase ratio (concentration: 10 uM): 1.43; Wnt reporter firefly/Renilla luciferase ratio (concentration: 100 uM): 0.976
CCSC(=O)N(CC)C1CCCCC1 [Cycloate] as listed: Wnt reporter firefly/Renilla luciferase ratio (concentration: 0.01 uM): 1.03; Wnt reporter firefly/Renilla luciferase ratio (concentration: 0.1 uM): 0.947; Wnt reporter firefly/Renilla luciferase ratio (concentration: 1 uM): 1.06; Wnt reporter firefly/Renilla luciferase ratio (concentration: 10 uM): 1.04; Wnt reporter firefly/Renilla luciferase ratio (concentration: 100 uM): 1.25

Continuation:

Row | Compound | Wnt reporter firefly/Renilla luciferase ratio (concentration: 0.01 uM) | Wnt reporter firefly/Renilla luciferase ratio (concentration: 0.1 uM) | Wnt reporter firefly/Renilla luciferase ratio (concentration: 1 uM) | Wnt reporter firefly/Renilla luciferase ratio (concentration: 10 uM) | Wnt reporter firefly/Renilla luciferase ratio (concentration: 100 uM)
45 | CSc1nc(NC(C)C)nc(NC(C)C)n1 [Prometryn] | 0.803 | 0.888 | 1.06 | 1 | 0.599
46 | O.[Br-].[Br-].c1cc[n+]2c(c1)-c1cccc[n+]1CC2 [Diquat dibromide monohydrate] | 1.03 | 0.909 | 0.983 | 1.18 | 1.14
47 | CC(C)=CC1C(C(=O)OCN2C(=O)C3=C(CCCC3)C2=O)C1(C)C (stereo not drawn) [Tetramethrin] | 0.717 | 0.76 | 0.941 | 0.819 | 0.824
48 | CC(=O)N=C1C=CC(=O)C=C1 | 0.925 | 1.17 | 1 | 0.923 | 1.08
49 | Cc1cc(Cl)ccc1OCC(=O)O | 0.747 | 0.754 | 0.938 | 0.821 | 1.07
50 | C=CCOC(=O)C(C)(C)OC(=O)c1cc(-n2c(=O)cc(C(F)(F)F)n(C)c2=O)ccc1Cl [Butafenacil] | 1.33 | 1.03 | 1.12 | 1.14 | 1.46
51 | CS(=O)(=O)c1ccc(C(=O)C2C(=O)CCCC2=O)c([N+](=O)[O-])c1 [Mesotrione] | 1.7 | 1.82 | 0.968 | 1.14 | 1.16
52 | O=C1CCCO1 [4-Butyrolactone] |  | 1.08 | 0.968 | 1.25 | 1.35
53 | Clc1cc(Cl)c(Cl)cc1Cl [1,2,4,5-Tetrachlorobenzene] |  | 1.45 | 1.14 | 1.3 | 1.32
54 | c1ccc(-c2ccccc2)cc1 [Biphenyl] |  | 1.39 | 1.01 | 1.25 | 1.46
55 | Oc1nc(O)nc(O)n1 [Cyanuric acid] |  | 1.32 | 1.15 | 1.08 | 1.55
56 | OCC1CO1 (stereo not drawn) [Glycidol] |  | 1.01 | 1.08 | 1.02 | 1.34
57 | O=c1n(Cl)c(=O)n(Cl)c(=O)n1Cl [Symclosene] | 1.17 | 1.2 | 1.18 | 1.36 | 1.04
58 | CO/C=C(/C(=O)OC)c1ccccc1COc1cccc(C(F)(F)F)n1 [Picoxystrobin] |  | 1.07 | 0.811 | 0.949 | 0.242
59 | CS(=O)CCCCN=C=S (stereo not drawn) [Sulforaphane] | 1.15 | 0.909 | 0.819 | 0.982 | 
60 | OCCCBr [3-Bromo-1-propanol] |  | 1.09 | 1.19 | 1.06 | 1.45
61 | C[C@]12C=CC3=C4CCC(=O)C=C4CC[C@H]3[C@@H]1CC[C@@H]2O [17beta-Trenbolone] |  | 1.08 | 1.18 | 0.938 | 0.146
62 | CCC[CH2][Sn]([Cl])([CH2]CCC)[CH2]CCC [Tributyltin chloride] |  | 0.894 | 0.822 | 0.539 | 
63 | CCOc1ccc(C(C)(C)COCc2cccc(Oc3ccccc3)c2)cc1 [Etofenprox] |  | 0.976 | 1.03 | 1.19 | 1.44
64 | CCOC(=O)COc1cc(-c2nn(C)c(OC(F)F)c2Cl)c(F)cc1Cl [Pyraflufen-ethyl] | 1.13 | 1.63 | 1.05 | 1.09 | 1.13
65 | CCOP(=S)(OCC)Oc1nc(Cl)n(C(C)C)n1 [Isazofos] | 1.07 | 0.998 | 0.947 | 1.22 | 0.937
